Reference: US12465617B2, “Methods and systems for inhibiting foreign-body responses in diabetic patients” (Medtronic MiniMed, Inc., priority 2013, dated 2025)
At least one structure is not confirmed: it was looked up by name or label, or the drawing left a doubt.

Test system: diabetic porcine model
Assay: Site-loss evaluation of insulin infusion sets in diabetic porcine model (blood glucose >350 mg/dl not corrected by insulin)
Type: in vivo, pig
Description: The objectives of this study include duplicating the site-loss phenomena observed in previous studies using a diabetic porcine model. Additionally, various infusion set configurations are evaluated for reducing site-loss and extending infusion set wear. Further, site-loss is mitigated using a response-inhibiting agent and/or infusion pump to increase reliability of wear for 3 days and extend infusion set wear beyond 3 days.
The objectives of this study include: duplicating the site-loss phenomena observed in previous studies using the diabetic porcine model; using the established diabetic porcine model to evaluate the effects of various infusion set designs on infusion site-loss; and testing if site-loss can be mitigated by direct pump infusing of immunosuppressant/anti-inflammatory drugs, and/or by modifying infusion set by drug coating.
This study is designed so that each set (inserted under anesthesia) is to be worn for 1 week unless there was set failure/dislodge. Glucose is monitored by a blood glucose meter and Enlite™ sensor. The criteria for determining site loss is that blood glucose is greater than 350 mg/dl and fails to decrease following an insulin dose correction. During biopsy pumps are removed but the cannula is maintained in-situ. Site skin is examined for edema/erythema (swell/redness) (see FIG. 8).

CO[C@H]1C[C@@H]2CC[C@@H](C)[C@@](O)(O2)C(=O)C(=O)N2CCCC[C@H]2C(=O)O[C@H]([C@H](C)C[C@@H]2CC[C@@H](O)[C@H](OC)C2)CC(=O)[C@H](C)/C=C(\C)[C@@H](O)[C@@H](OC)C(=O)[C@H](C)C[C@H](C)/C=C/C=C/C=C/1C [Rapamycin]
site-loss performance versus the control (agent formulated with insulin (Humalog)): significantly better than the control
site-loss mitigation (directly infused with insulin or coated on the cannula): showed site-loss mitigation
